The supplement of paper PMC10849652
The list shows a part of the results.

Sequences of proteins named here, by UniProt entry; tags and fusion partners are left off. A change or cut given only in a name is not applied to a line headed by its entry.
UniProt Q5JSD2: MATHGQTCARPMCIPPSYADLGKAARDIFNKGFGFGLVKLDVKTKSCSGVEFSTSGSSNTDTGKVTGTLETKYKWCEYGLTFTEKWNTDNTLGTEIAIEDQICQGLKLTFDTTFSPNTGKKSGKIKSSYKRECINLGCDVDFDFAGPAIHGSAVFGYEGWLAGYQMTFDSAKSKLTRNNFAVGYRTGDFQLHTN
UniProt Q9Y4P8: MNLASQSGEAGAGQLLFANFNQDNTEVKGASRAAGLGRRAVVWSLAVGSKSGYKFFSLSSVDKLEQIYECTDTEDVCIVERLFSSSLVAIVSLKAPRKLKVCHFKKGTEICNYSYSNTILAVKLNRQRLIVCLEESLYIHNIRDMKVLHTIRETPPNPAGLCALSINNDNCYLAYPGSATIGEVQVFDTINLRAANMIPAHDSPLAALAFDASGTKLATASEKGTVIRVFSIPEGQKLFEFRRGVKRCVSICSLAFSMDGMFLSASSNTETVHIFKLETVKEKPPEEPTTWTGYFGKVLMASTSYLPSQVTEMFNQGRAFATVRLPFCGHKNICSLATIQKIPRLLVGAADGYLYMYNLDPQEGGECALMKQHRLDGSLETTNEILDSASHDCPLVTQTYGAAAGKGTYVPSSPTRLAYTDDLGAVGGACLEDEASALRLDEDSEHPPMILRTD
UniProt Q92558: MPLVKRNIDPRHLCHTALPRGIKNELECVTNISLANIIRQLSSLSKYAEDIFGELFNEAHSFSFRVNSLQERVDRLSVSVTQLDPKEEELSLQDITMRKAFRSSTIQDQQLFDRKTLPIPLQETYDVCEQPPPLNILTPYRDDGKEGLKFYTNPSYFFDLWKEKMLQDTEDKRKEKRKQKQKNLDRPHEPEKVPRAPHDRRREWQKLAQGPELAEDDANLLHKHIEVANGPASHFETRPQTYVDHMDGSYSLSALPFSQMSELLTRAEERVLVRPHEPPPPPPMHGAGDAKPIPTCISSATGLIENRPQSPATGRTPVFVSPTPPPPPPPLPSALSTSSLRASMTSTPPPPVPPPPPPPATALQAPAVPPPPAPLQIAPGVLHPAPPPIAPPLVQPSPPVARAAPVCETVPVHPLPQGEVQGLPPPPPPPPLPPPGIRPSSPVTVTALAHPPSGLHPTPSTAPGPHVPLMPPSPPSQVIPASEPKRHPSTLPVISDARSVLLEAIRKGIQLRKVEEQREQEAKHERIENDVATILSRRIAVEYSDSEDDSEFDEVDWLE
UniProt Q69YN4: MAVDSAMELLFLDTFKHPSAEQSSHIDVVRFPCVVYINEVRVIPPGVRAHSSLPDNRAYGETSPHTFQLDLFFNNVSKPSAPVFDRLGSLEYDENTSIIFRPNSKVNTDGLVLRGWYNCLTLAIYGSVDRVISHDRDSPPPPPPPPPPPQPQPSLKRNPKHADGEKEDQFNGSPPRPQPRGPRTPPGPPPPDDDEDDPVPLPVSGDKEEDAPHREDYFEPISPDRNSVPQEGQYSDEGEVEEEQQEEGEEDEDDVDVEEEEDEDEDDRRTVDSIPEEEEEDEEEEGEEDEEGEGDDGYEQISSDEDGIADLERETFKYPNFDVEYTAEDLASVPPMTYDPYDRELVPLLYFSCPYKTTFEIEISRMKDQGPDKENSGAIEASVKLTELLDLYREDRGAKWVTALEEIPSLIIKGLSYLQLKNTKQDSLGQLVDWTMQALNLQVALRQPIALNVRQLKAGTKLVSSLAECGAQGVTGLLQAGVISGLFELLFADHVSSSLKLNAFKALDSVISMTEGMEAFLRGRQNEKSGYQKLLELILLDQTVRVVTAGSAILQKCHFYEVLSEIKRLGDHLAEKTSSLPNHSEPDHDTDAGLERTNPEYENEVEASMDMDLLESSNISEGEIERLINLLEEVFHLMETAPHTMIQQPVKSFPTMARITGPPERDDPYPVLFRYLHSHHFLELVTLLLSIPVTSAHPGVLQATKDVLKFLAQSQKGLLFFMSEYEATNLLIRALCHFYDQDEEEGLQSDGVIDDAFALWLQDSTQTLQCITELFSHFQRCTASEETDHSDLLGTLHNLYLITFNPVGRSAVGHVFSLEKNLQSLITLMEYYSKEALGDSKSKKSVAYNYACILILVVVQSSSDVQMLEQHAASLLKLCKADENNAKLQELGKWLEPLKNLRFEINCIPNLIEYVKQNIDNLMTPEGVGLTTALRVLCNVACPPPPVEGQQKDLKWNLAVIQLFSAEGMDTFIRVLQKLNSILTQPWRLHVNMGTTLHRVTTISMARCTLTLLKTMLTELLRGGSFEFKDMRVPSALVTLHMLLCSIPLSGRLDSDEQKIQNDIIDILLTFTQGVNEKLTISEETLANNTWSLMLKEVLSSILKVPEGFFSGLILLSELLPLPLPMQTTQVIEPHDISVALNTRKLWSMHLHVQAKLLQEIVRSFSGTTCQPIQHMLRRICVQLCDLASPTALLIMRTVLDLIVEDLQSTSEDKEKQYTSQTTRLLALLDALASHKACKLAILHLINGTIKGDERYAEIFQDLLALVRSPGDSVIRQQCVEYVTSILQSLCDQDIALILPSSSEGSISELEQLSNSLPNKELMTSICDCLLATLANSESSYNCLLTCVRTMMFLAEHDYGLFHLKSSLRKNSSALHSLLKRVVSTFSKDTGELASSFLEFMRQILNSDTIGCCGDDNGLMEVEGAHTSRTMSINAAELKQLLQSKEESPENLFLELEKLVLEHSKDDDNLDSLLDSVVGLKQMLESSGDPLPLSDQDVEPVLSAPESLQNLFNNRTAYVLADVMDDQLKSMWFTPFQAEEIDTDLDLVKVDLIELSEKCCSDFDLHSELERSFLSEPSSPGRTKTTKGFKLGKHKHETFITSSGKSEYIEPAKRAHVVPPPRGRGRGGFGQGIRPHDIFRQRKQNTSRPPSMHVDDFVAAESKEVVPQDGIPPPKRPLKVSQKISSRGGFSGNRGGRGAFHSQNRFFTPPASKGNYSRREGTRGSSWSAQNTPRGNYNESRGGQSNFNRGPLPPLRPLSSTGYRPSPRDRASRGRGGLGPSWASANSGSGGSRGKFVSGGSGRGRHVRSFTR
UniProt O95497: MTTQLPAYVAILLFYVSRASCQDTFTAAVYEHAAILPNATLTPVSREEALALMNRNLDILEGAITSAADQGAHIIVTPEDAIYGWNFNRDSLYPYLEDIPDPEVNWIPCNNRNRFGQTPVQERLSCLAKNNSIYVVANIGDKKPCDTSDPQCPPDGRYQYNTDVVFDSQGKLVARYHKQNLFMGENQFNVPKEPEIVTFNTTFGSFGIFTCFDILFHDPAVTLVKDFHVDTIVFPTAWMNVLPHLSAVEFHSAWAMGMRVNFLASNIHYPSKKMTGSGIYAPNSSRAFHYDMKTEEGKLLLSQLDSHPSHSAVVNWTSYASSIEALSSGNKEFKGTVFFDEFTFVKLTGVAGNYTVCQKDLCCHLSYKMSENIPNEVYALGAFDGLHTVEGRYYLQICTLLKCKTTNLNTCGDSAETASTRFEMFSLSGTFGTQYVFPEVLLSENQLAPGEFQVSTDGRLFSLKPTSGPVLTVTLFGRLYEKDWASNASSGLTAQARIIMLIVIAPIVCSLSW
UniProt Q8NEZ3: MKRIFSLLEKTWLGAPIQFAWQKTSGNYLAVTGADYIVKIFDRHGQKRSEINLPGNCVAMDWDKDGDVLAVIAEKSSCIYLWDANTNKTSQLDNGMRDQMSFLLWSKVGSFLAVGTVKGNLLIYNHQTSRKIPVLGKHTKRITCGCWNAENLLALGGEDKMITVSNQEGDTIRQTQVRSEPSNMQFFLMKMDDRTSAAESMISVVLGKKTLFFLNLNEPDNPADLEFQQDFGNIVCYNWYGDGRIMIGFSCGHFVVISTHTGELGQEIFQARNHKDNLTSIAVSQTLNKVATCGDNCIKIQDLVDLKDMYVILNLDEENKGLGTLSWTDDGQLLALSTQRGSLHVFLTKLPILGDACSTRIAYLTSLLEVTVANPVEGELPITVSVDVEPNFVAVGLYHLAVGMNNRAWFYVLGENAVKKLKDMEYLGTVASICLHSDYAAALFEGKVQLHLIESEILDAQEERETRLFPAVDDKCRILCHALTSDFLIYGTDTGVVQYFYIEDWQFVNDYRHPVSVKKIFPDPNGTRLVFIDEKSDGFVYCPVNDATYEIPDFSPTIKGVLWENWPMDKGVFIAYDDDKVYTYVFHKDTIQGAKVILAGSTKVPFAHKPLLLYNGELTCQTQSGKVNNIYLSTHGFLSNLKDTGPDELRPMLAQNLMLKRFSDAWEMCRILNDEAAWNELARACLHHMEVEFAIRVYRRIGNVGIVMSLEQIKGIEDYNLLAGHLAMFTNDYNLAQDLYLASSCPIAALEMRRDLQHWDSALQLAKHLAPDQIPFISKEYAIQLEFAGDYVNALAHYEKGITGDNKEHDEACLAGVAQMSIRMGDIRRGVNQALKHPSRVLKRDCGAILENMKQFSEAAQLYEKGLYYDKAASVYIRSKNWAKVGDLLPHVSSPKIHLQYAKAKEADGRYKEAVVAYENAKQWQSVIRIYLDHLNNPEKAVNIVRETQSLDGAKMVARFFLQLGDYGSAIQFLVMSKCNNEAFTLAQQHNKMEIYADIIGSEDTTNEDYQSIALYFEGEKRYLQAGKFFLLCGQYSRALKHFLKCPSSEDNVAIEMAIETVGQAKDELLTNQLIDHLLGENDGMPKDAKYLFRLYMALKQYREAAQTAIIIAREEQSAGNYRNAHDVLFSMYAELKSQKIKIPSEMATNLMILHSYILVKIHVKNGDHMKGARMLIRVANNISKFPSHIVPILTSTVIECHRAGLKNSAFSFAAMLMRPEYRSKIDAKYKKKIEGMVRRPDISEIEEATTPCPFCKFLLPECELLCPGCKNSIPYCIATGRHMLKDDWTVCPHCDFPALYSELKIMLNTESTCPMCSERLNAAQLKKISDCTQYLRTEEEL
UniProt Q3ZAQ7: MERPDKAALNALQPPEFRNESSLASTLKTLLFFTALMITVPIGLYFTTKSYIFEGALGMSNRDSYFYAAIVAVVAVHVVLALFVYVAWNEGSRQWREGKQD
UniProt Q502W6: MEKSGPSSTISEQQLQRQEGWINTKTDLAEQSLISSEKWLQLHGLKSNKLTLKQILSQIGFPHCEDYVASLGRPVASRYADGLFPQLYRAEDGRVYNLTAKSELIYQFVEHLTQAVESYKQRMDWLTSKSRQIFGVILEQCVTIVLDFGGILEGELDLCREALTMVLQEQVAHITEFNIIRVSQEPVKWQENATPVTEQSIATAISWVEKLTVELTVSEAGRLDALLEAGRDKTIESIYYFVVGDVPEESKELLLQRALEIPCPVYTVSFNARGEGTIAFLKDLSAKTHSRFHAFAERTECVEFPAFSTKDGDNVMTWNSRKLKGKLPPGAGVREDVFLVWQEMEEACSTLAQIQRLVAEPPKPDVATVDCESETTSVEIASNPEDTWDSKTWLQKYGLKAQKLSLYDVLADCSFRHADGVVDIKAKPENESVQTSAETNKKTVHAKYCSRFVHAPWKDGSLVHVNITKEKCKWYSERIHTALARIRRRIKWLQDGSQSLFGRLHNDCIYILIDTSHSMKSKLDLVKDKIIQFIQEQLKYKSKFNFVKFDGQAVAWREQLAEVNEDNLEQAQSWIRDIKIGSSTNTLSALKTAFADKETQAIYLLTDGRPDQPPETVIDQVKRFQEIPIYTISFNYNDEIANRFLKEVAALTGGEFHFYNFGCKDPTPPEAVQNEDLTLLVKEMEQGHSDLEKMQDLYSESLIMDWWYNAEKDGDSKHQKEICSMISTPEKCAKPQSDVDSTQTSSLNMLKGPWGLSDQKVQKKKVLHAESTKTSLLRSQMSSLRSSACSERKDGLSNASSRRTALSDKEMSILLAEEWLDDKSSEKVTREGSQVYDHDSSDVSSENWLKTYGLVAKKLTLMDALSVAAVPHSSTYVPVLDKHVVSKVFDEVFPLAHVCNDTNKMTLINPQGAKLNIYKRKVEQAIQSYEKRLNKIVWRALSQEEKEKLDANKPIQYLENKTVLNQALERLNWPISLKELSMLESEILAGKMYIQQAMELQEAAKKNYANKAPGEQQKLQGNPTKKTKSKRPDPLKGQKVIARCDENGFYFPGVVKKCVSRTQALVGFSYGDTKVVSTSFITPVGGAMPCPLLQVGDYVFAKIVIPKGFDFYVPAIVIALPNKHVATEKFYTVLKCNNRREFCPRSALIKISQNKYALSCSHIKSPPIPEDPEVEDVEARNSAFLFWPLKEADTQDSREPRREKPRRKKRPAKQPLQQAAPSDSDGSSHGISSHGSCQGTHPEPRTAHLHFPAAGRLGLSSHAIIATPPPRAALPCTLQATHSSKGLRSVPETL

compound: O=C(CCCCCCNC(=O)c1cnc(N(c2ccccc2)c2ccccc2Cl)nc1)NO [citarinostat]; assay: log2 fold change, soluble protein after heating vs DMSO (PISA); higher = thermal stabilisation; K562 cells, 10 uM, 30 min; active = over 0.2 and 3.5 SD of the protein, either way, in both replicates (recomputed)
In short: (§1)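 Soluble protein was quantified by TMTpro 16plex LC-MS/MS after channel sums were equalised. It was obtained as the supernatant after 21,000xg for 90 min from pooled aliquots of K562 cells (2×10^6 cells/mL, 10 μM compound, 30 min) heated for 3 min across 48°C-58°C and extracted in PBS with 0.5% NP-40 at 4°C. Thermal stability values are relative to control samples and come from duplicates. They are given as log2 fold changes.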

log2 fold change, inactive:
WDR91 (UniProt A4D1P6) -0.174
VDAC2 (UniProt Q5JSD2) -0.009
WIPI2 isoform 6 (UniProt Q9Y4P8) 0.248
VPS37C (UniProt A5D8V6) -0.016
WARS1 (UniProt G3V5U1) -0.608
WASF1 (UniProt Q92558) -0.024
VIRMA (UniProt Q69YN4) 0.091
VNN1 (UniProt O95497) -0.061
WDR19 (UniProt Q8NEZ3) -0.052
WDR46, A0A0G2JJL1 -0.163
VMA21 isoform 2 (UniProt Q3ZAQ7) 0.157
VEGFA (UniProt H0YBI8) 0.075
VPS35, A0A1W2PP10 -0.046
VPS54 (UniProt Q9P1Q0) -0.007
VWA3B isoform 6 (UniProt Q502W6) -0.128

compound: O=C(O)c1ccc2c(c1)nc(Nc1cccc(Cl)c1)c1ccncc12 [silmitasertib]; assay: as above
In short: as §1

log2 fold change, inactive:
VDAC2 (UniProt Q5JSD1) 0.215
WDR91 (UniProt A4D1P6) 0.15
VDAC2 (UniProt Q5JSD2) 0.193
VLDLR (UniProt P98155) 0.092
VPS37C (UniProt A5D8V6) 0.05
WARS1 (UniProt G3V5U1) 0.297
WASF1 (UniProt Q92558) 0.047
WWOX (UniProt Q9NZC7) 0.035
WDR46, A0A0G2JJL1 0.247
XAB2 (UniProt Q9HCS7) 0.038
VMA21 isoform 2 (UniProt Q3ZAQ7) 0.106
VEGFA (UniProt H0YBI8) 0.014
WDR75 (UniProt Q8IWA0) 0.086
VPS35, A0A1W2PP10 -0.094
VWA3B isoform 6 (UniProt Q502W6) 0.162

compound: O=C1NC(=O)C(c2cnc3ccccn23)=C1c1cn2c3c(cc(F)cc13)CN(C(=O)N1CCCCC1)CC2; assay: as above
In short: as §1

log2 fold change, inactive:
WNK4 (UniProt Q96J92) 0.047
VIL1 (UniProt P09327) 0.078
VDAC2 (UniProt Q5JSD1) 0.461
WDR91 (UniProt A4D1P6) 0.087
WSB1 (UniProt Q9Y6I7) -0.262
VDAC2 (UniProt Q5JSD2) -0.045
VLDLR (UniProt P98155) -0.075
WARS1 (UniProt G3V227) -0.084
VPS37C (UniProt A5D8V6) -0.048
WARS1 (UniProt G3V5U1) -0.761
WASF1 (UniProt Q92558) 0.11
VIRMA (UniProt Q69YN4) -0.471
WWP2 (UniProt O00308) 0.335
WDR46, A0A0G2JJL1 0.284
XAB2 (UniProt Q9HCS7) 0.298
VMA21 isoform 2 (UniProt Q3ZAQ7) -0.346
WDR75 (UniProt Q8IWA0) 0.17
WARS1 (UniProt G3V339) -0.387
VPS35, A0A1W2PP10 -0.047
WDR4 isoform 3 (UniProt P57081) -0.135
WDR76 (UniProt Q9H967) 0.139
VWA3B isoform 6 (UniProt Q502W6) -0.009

compound: c1cc(OCCN2CCCCC2)cc(-c2n[nH]c3ccc(-c4nnc[nH]4)cc23)c1; assay: as above
In short: as §1

log2 fold change, inactive:
WDR91 (UniProt A4D1P6) 0.208
VDAC2 (UniProt Q5JSD2) -0.057
WIPI2 isoform 6 (UniProt Q9Y4P8) 0.02
VPS37C (UniProt A5D8V6) -0.265
WARS1 (UniProt G3V5U1) -0.083
WASF1 (UniProt Q92558) -0.086
VIRMA (UniProt Q69YN4) -0.042
VNN1 (UniProt O95497) 0.364
WDR19 (UniProt Q8NEZ3) 0.084
WDR46, A0A0G2JJL1 0.013
VMA21 isoform 2 (UniProt Q3ZAQ7) -0.133
VEGFA (UniProt H0YBI8) -0.194
VPS35, A0A1W2PP10 0.007
VPS54 (UniProt Q9P1Q0) -0.018
VWA3B isoform 6 (UniProt Q502W6) -0.076

compound: c1cn2cc(-c3ccc4cn[nH]c4c3)nc(Nc3ccc(N4CCOCC4)cc3)c2n1 [entospletinib]; assay: as above
In short: as §1

log2 fold change, inactive:
WDR91 (UniProt A4D1P6) 0.053
VDAC2 (UniProt Q5JSD2) -0.113
WIPI2 isoform 6 (UniProt Q9Y4P8) -0.07
VPS37C (UniProt A5D8V6) 0.005
WASF1 (UniProt Q92558) 0.027
VIRMA (UniProt Q69YN4) 0.102
VNN1 (UniProt O95497) 0.048
WDR19 (UniProt Q8NEZ3) -0.089
VMA21 isoform 2 (UniProt Q3ZAQ7) -0.009
VEGFA (UniProt H0YBI8) -0.074
VPS35, A0A1W2PP10 -0.08
VPS54 (UniProt Q9P1Q0) 0.098
